Results deposited as PubChem BioAssay AID1259405 (NCATS, 2018).
Shown is a random part of about 50,000 deposited reagents. Over the whole deposit, about 4,000 (8%) are marked active. 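Mouse siRNA library applied to hamster cells; one well for each siRNA.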 The numbers tell different reagents against one gene apart. Reagent sequences are not shown.

Aim: 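Silenced genes that increase secreted GFP made by CHO cells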 (primary screen)
Cells: Chinese hamster CHO-K1 ovary cells with stable secreted eGFP expression
Knock-down reagent: single siRNA against mouse genes, 0.8 pmol siRNA per well (2 µl of 400 nM stock)
Duration: 3 days
Measurement: 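Per-well intracellular GFP measured by laser scanning cytometry, plus viability from ATP luminescence, each relative to plate median of non-targeting control wells, in %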
Direction: GFP, % of control: higher = more GFP per well, higher productivity; viability (ATP), % of control: higher = more viable cells (more ATP)
Rule for the call: 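a knock-down is called active if GFP reaches 120% or more of non-targeting control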

| gene knocked down | reagent | GFP, % of control | viability (ATP), % of control | activity call |
| --- | --- | --- | --- | --- |
| Ecsit (GeneID 26940) | 1 | 80.2 | 86 | inactive |
| Ecsit (GeneID 26940) | 2 | 142 | 98.9 | active |
| Nek6 (GeneID 59126) | 1 | 50.6 | 62 | inactive |
| Padi6 (GeneID 242726) | 1 | 87.4 | 117 | inactive |
| Padi6 (GeneID 242726) | 2 | 43.3 | 56.7 | inactive |
| Padi6 (GeneID 242726) | 3 | 65.5 | 75.1 | inactive |
| Or13c7b (GeneID 29846) | 1 | 101 | 82.6 | inactive |
| Or13c7b (GeneID 29846) | 2 | 45.4 | 39.3 | inactive |
| Or13c7b (GeneID 29846) | 3 | 79.4 | 53.8 | inactive |
| Or6f2 (GeneID 258511) | 1 | 79.2 | 42.6 | inactive |
| Or6f2 (GeneID 258511) | 2 | 76.8 | 77.1 | inactive |
| Or6f2 (GeneID 258511) | 3 | 87.6 | 81 | inactive |
| Vldlr (GeneID 22359) | 1 | 104 | 95.4 | inactive |
| Vldlr (GeneID 22359) | 2 | 53.7 | 67.4 | inactive |
| Vldlr (GeneID 22359) | 3 | 85.2 | 80.7 | inactive |
| Ing2 (GeneID 69260) | 1 | 88.7 | 87.2 | inactive |
| Ing2 (GeneID 69260) | 2 | 94.6 | 71.7 | inactive |
| Leprot (GeneID 230514) | 1 | 93.5 | 54.9 | inactive |
| Leprot (GeneID 230514) | 2 | 102 | 62.6 | inactive |
| Leprot (GeneID 230514) | 3 | 78.4 | 81.4 | inactive |
| Bora (GeneID 77744) | 1 | 97.5 | 72.4 | inactive |
| Bora (GeneID 77744) | 2 | 87.3 | 98.6 | inactive |
| Bora (GeneID 77744) | 3 | 129 | 139 | active |
| Cr2 (GeneID 12902) | 1 | 38.4 | 55.8 | inactive |
| Cr2 (GeneID 12902) | 2 | 126 | 71 | active |
| Cr2 (GeneID 12902) | 3 | 38.9 | 50.7 | inactive |
| Kdr (GeneID 16542) | 1 | 76.6 | 55 | inactive |
| Ttr (GeneID 22139) | 1 | 163 | 38.4 | active |
| Ttr (GeneID 22139) | 2 | 57.8 | 44.1 | inactive |
| Ttr (GeneID 22139) | 3 | 73.9 | 123 | inactive |
| Pid1 (GeneID 98496) | 1 | 152 | 116 | active |
| Pid1 (GeneID 98496) | 2 | 81.3 | 69.2 | inactive |
| Pid1 (GeneID 98496) | 3 | 97.9 | 85.3 | inactive |
| Irx5 (GeneID 54352) | 1 | 48.5 | 77.1 | inactive |
| Irx5 (GeneID 54352) | 2 | 68.4 | 76.6 | inactive |
| Irx5 (GeneID 54352) | 3 | 85.1 | 98.4 | inactive |
| Arpc5l (GeneID 74192) | 1 | 43.6 | 49.4 | inactive |
| Arpc5l (GeneID 74192) | 2 | 52.5 | 58.2 | inactive |
| Arpc5l (GeneID 74192) | 3 | 48.9 | 35.9 | inactive |
| Cd86 (GeneID 12524) | 1 | 140 | 85 | active |
| Cd86 (GeneID 12524) | 2 | 46.1 | 58 | inactive |
| Cd86 (GeneID 12524) | 3 | 69.6 | 75.4 | inactive |
| Pdlim7 (GeneID 67399) | 1 | 85.1 | 84.4 | inactive |
| Pdlim7 (GeneID 67399) | 2 | 62.4 | 80 | inactive |
| Pdlim7 (GeneID 67399) | 3 | 30.6 | 57.1 | inactive |
| Nfe2l1 (GeneID 18023) | 1 | 52.9 | 56.3 | inactive |
| Nfe2l1 (GeneID 18023) | 2 | 51.6 | 62.9 | inactive |
| Nfe2l1 (GeneID 18023) | 3 | 85 | 92.9 | inactive |
| Or5ac21 (GeneID 258479) | 1 | 69.6 | 63.1 | inactive |
| Or5ac21 (GeneID 258479) | 2 | 59.6 | 45.1 | inactive |
| Or5ac21 (GeneID 258479) | 3 | 71.4 | 80 | inactive |
| Alg6 (GeneID 320438) | 1 | 68.5 | 78.8 | inactive |
| Alg6 (GeneID 320438) | 2 | 121 | 69.1 | active |
| Alg6 (GeneID 320438) | 3 | 102 | 118 | inactive |
| Eef1a2 (GeneID 13628) | 1 | 35.2 | 43.7 | inactive |
| Eef1a2 (GeneID 13628) | 2 | 83 | 87.8 | inactive |
| Eef1a2 (GeneID 13628) | 3 | 43.1 | 41.7 | inactive |
| Taar2 (GeneID 209512) | 1 | 28.4 | 37.2 | inactive |
| Taar2 (GeneID 209512) | 2 | 73.2 | 84 | inactive |
| Taar2 (GeneID 209512) | 3 | 65.7 | 66.3 | inactive |
| Tspan33 (GeneID 232670) | 1 | 83.6 | 43.2 | inactive |
| Tspan33 (GeneID 232670) | 2 | 58.6 | 68.3 | inactive |
| Tspan33 (GeneID 232670) | 3 | 121 | 73.7 | active |
| Cep57 (GeneID 74360) | 1 | 62.7 | 68.1 | inactive |
| Cep57 (GeneID 74360) | 2 | 50.9 | 58 | inactive |
| Cep57 (GeneID 74360) | 3 | 57.2 | 76.1 | inactive |
| Ccdc87 (GeneID 399599) | 1 | 114 | 88.8 | inactive |
| Ccdc87 (GeneID 399599) | 2 | 133 | 51.1 | active |
| Ccdc87 (GeneID 399599) | 3 | 107 | 81.4 | inactive |
| St6gal2 (GeneID 240119) | 1 | 64.8 | 62.3 | inactive |
| St6gal2 (GeneID 240119) | 2 | 98.3 | 91.2 | inactive |
| St6gal2 (GeneID 240119) | 3 | 93.7 | 75.7 | inactive |
| Brinp2 (GeneID 240843) | 1 | 67.8 | 43.4 | inactive |
| Brinp2 (GeneID 240843) | 2 | 78.8 | 86.9 | inactive |
| Brinp2 (GeneID 240843) | 3 | 89.1 | 89.4 | inactive |
| Sppl2b (GeneID 73218) | 1 | 108 | 64.3 | inactive |
| Sppl2b (GeneID 73218) | 2 | 99.2 | 47.4 | inactive |
| Sppl2b (GeneID 73218) | 3 | 147 | 80.2 | active |
| Or13a25 (GeneID 258963) | 1 | 122 | 78.4 | active |
| Or13a25 (GeneID 258963) | 2 | 99 | 99.3 | inactive |
| Or13a25 (GeneID 258963) | 3 | 168 | 105 | active |
| Klrc1 (GeneID 16641) | 1 | 101 | 113 | inactive |
| Klrc1 (GeneID 16641) | 2 | 115 | 78.3 | inactive |
| P2rx7 (GeneID 18439) | 1 | 79.4 | 68.9 | inactive |
| P2rx7 (GeneID 18439) | 2 | 82 | 69.6 | inactive |
| P2rx7 (GeneID 18439) | 3 | 51.4 | 65.3 | inactive |
